Values of other authors in patent US20050036943A1, “Methods and compositions for the diagnosis of asthma” (priority 2001, published 2005).
At least one compound was matched to its structure with a doubt left.

System: guinea-pig lung parenchymal strips
Settings: Simmet et al. 1987

In the case of `CC/C=C\C/C=C\C/C=C\C/C=C\C/C=C\CCCC(=O)O` [eicosapentaenoic acid], the “effect on SP-LT release” value is listed as “enhancing” and the “effect on release of anaphylactic cyclooxygenase products” value is listed as “inhibit”.
